Article doi:10.1101/2020.05.08.085126
Results are given in words; binding and its absence hold for the method and conditions named.

Key:
[1] = target: STF^85-190 R151A mutant (Medicago truncatula) (UniProt G0ZGT3); experiment: native gel or EMSA
[2] = target: STF^85-190 F142Y/Y143N mutant (Medicago truncatula) (UniProt G0ZGT3); experiment: native gel or EMSA

Row | binding [1] | binding [2] | Binder
1 | no binding | – | STF^85-190 R151A mutant (domain or fragment, UniProt G0ZGT3 85-190) NNPSAAVVVSSRWNPTPEQLRALEELYRRGTRTPSAEQIQQITAQLRKFGKIEGKNVFYWFQNHKAAERQKRRRQMESAAAEFDSAIEKKDLGASRTVFEVEHTKN
2 | – | no binding | STF^85-190 F142Y/Y143N mutant (domain or fragment, UniProt G0ZGT3 85-190) NNPSAAVVVSSRWNPTPEQLRALEELYRRGTRTPSAEQIQQITAQLRKFGKIEGKNVYNWFQNHKARERQKRRRQMESAAAEFDSAIEKKDLGASRTVFEVEHTKN
